Results published in PubChem BioAssay AID2685 (National Center for Advancing Translational Sciences (NCATS), 2010).
The list shows a part of the results. The main result of the screen is listed elsewhere. These columns were measured beside it and carry no call. Most of these compounds were active or inconclusive in the main read-out, so they are no random draw. The note in brackets gives the kind of curve behind each potency; many fits are weak.

Test: qHTS Assay for Lipid Storage Modulators in Drosophila S3 Cells;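 on cell number change: cells counted by Cell Tracker Red CMTPX staining in the red channel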
Conditions: BODIPY lipid droplet fluorescence, 18-24 h; for cell number change: measured here: cell count max response, cells fed with added oleic acid
Procedure, shortened: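 Drosophila S3 cells got compounds at several concentrations plus oleic acid (400 uM solution). Laser-scanning cytometry with 488 nm excitation read lipid droplets at 500-530 nm and cells at 575-640 nm. Percent activity was relative to 20 uM Triacsin C.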

[1] = measured here: cell number channel AC50, cells fed with added oleic acid
[2] = measured here: lipid fluorescence (Fed channel) AC50, cells fed with added oleic acid

SMILES	cell number change	AC50 [1]	AC50 [2]
O=C(CSc1ccc(Cl)cc1)NNC(=O)c1ccncc1	35.9%	29.1 µM [rising, single point]	–
CC(NC(=O)CCSCc1ccccc1F)c1ccccc1 (configuration not stated)	-4.23%	–	29.1 µM [rising, single point]
C(=C\c1ccccc1)/CNCC1CCCO1 (configuration not stated)	37.3%	0.651 µM [rising, full curve]	–
O=C(c1ccc2c(c1)N(Cc1ccccc1F)C(=O)c1ccccc1S2(=O)=O)N1CCCC1	-19.2%	–	–
Cc1cc2c(cc1S(=O)(=O)Nc1ccc(F)cc1)n(C)c(=O)c(=O)n2C	-3.17%	–	8.2 µM [falling, partial curve]
COc1ccc(NC(=O)CN(C)C(=O)c2cc(-c3cccs3)nn2-c2ccccc2)cc1	–	–	0.00461 µM [falling, full curve, poor fit]
CC1(C)SC(=S)N(NC(=O)Nc2cccc3ccccc23)C1N(O)C(=O)Nc1ccccc1 (configuration not stated)	-36.2%	0.259 µM [falling, full curve, poor fit]	29.1 µM [rising, single point]
COc1ccc2[nH]c(C(=O)N/N=C/c3ccc(O)cc3O)cc2c1	-24.8%	–	0.082 µM [falling, full curve]
O=C(COC(=O)CCC(=O)c1ccc(F)cc1)Nc1ccccc1	–	5.8 µM [rising, single point]	–
COc1ccc(CCN2C(=O)CSC2=Nc2ccc(C)cc2C)cc1OC	7.17%	–	6.51 µM [rising, single point]
C=CCN(CC=C)CCOc1cccc(Oc2ccccc2)c1	-1.47%	–	–
O=C(CS(=O)(=O)Cc1ccccc1)Nc1nnc(C2CCCCC2)s1	-3.85%	0.731 µM [falling, full curve]	0.13 µM [falling, full curve, poor fit]
O=S(=O)(c1ccc2ccccc2c1)N(CC1CO1)c1ccccc1 (configuration not stated)	-3.1%	–	10.3 µM [falling, partial curve, poor fit]
COC(=O)C1(C)NC(c2ccc(OC)cc2)C2C(=O)N(c3ccccc3)C(=O)C21 (configuration not stated)	25%	–	–
Clc1ccccc1C1CC(c2ccccc2)Nc2ncnn21 (configuration not stated)	–	0.13 µM [rising, full curve, poor fit]	–
CCN1C(=O)CC(N2CCC(Nc3ccc(OC)cc3)CC2)C1=O (configuration not stated)	-3.99%	1.46 µM [falling, partial curve]	–
COc1ccccc1N1CCN(C2CCCN(C(=O)CCc3c(C)noc3C)C2)CC1 (configuration not stated)	0.917%	–	29.1 µM [falling, single point]
CCOC(=O)CC1Sc2ccccc2NC1=S (configuration not stated)	28.5%	–	–
COC(=O)c1ccc(CSc2nnc(Nc3cccc(OC)c3)s2)o1	20.4%	–	2.31 µM [rising, single point]
CCN(CC)c1ccc(/C=N\N2CCN(Cc3ccc(C)cc3)CC2)cc1	-74.1%	29.1 µM [falling, single point]	–

SMILES	cell number change	AC50 [1]	AC50 [2]
Cc1nnc(NC(=O)c2oc3c(ccc4ccccc43)c2C)s1	-6.81%	–	29.1 µM [falling, single point]
COc1ccc(-c2nn(-c3ccccc3)cc2/C=N/O)cc1	-46.8%	20.6 µM [falling, single point]	23.1 µM [falling, single point]
Brc1ccc(CSc2nnc(Cc3c[nH]c4ccccc34)o2)cc1	-0.383%	–	29.1 µM [rising, single point]
COc1ccccc1-c1noc(-c2ccco2)n1	–	0.259 µM [falling, full curve, poor fit]	0.92 µM [falling, full curve, poor fit]
CCOC(=O)N1CCN(C(=O)C2CC(c3cc(OC)ccc3OC)=NO2)CC1 (configuration not stated)	-45.6%	8.2 µM [falling, partial curve, poor fit]	1.46 µM [falling, full curve]
O=C(Cn1nc(-c2cccs2)ccc1=O)Nc1ccc(Br)cc1	-25%	–	–
Cc1ccc(C)c(NC(=S)NNc2ccc(F)cc2F)c1	4.17%	–	6.51 µM [rising, single point]
COc1cc(-c2nnc3n2CCCCC3)cc(OC)c1OC	-0.551%	–	6.51 µM [falling, single point]
O=C1C(=O)c2c(C(=O)c3ccccc3)coc2-c2ccccc21	-76.3%	18.4 µM [falling, single point]	0.206 µM [falling, full curve, poor fit]
CC1(C)CC(=O)c2cc(C(=O)NC3CCSC3=O)c(=O)n(-c3ccc(Cl)cc3)c2C1 (configuration not stated)	–	6.51 µM [rising, single point]	23.1 µM [rising, single point]
Cc1ccc(CCNC(=O)CC(C)CC2=NS(=O)(=O)c3ccccc3N2)cc1 (configuration not stated)	–	–	10.3 µM [rising, partial curve]
CCOC(=O)c1cnc2ccc(OCC)cc2c1NCCCN1CCOCC1	-38.1%	8.2 µM [falling, partial curve]	1.03 µM [falling, partial curve]
CCN(CC)c1ccc(/C=N/NC(=O)c2ccoc2C)c(O)c1	-34.8%	8.2 µM [falling, single point]	18.4 µM [falling, single point]
CCC(C)(C)n1nnnc1CN1CCc2ccccc21	51.8%	16.4 µM [rising, single point]	–
CCOC(=O)CC(=O)CSc1ncnc2c1cnn2-c1ccccc1	-18.4%	–	6.51 µM [rising, single point]
Cc1ccc(/C=N/NC(=O)c2cc(C3CC3)nc3ccccc23)o1	-31.1%	0.0058 µM [falling, full curve, poor fit]	–
O=S(=O)(NCc1ccco1)N1CCOCC1	1.6%	–	0.00517 µM [falling, full curve, poor fit]
COc1ccc(CCNC(=O)CSCc2ccc(Br)cc2)cc1OC	-27%	–	29.1 µM [falling, single point]
COCCCNc1nc2c(c(=O)[nH]c(=O)n2C)n1CC(O)COc1ccccc1C (configuration not stated)	-29.6%	0.103 µM [falling, full curve, poor fit]	3.66 µM [falling, full curve]

3 structures from above, sorted by formula weight, smallest number first.
SMILES	cell number change	AC50 [1]	AC50 [2]
O=C1C(=O)c2c(C(=O)c3ccccc3)coc2-c2ccccc21	-76.3%	18.4 µM [falling, single point]	0.206 µM [falling, full curve, poor fit]
Cc1nnc(NC(=O)c2oc3c(ccc4ccccc43)c2C)s1	-6.81%	–	29.1 µM [falling, single point]
CCOC(=O)c1cnc2ccc(OCC)cc2c1NCCCN1CCOCC1	-38.1%	8.2 µM [falling, partial curve]	1.03 µM [falling, partial curve]
